In US20060083691A1, “Intranasal opioid compositions, delivery devices and methods of using same” (priority 2000, published 2006):

Columns and labels:
clinical = settings: male, human, plasma, 2 mg
[1] = 2 mg IN
[2] = 2 mg IN; remark: listed apart in the source

CN1CC[C@]23c4c5ccc(O)c4O[C@H]2C(=O)CC[C@H]3[C@H]1C5.Cl [hydromorphone HCl]
bioavailability (clinical; intramuscular): ~30%
AUC(0-t) (clinical; intramuscular, AUC(0-t) range, 2 mg i.m.): 10.6 to 15.3 ng·h/mL
AUC(0-t) (clinical; intramuscular, AUC(0-t), 2 mg i.m.): 13 ng·h/mL
AUC(0-inf) (clinical; intramuscular, AUC(0-∞) range, 2 mg i.m.): 11.2 to 16.7 ng·h/mL
AUC(0-inf) (clinical; intramuscular, AUC(0-∞), 2 mg i.m.): 13.5 ng·h/mL
Cmax (clinical; intramuscular, Cmax range, 2 mg i.m.): 6.75 to 18.1 ng/mL
Cmax (clinical; intramuscular, Cmax, 2 mg i.m.): 10.8 ng/mL
Tmax (clinical; intramuscular, Tmax range, 2 mg i.m.): 4.98 to 20 min
AUC(0-t) (clinical; iv, AUC(0-t) range, 2 mg i.v.): 8.55 to 11.5 ng·h/mL
AUC(0-t) (clinical; iv, AUC(0-t), 2 mg i.v.): 9.9 ng·h/mL
AUC(0-inf) (clinical; iv, AUC(0-∞) range, 2 mg i.v.): 8.79 to 12.9 ng·h/mL
AUC(0-inf) (clinical; iv, AUC(0-∞), 2 mg i.v.): 10.4 ng·h/mL
Cmax (clinical; iv, Cmax range, 2 mg i.v.): 6.95 to 28.9 ng/mL
Cmax (clinical; iv, Cmax, 2 mg i.v.): 15.5 ng/mL
Tmax (clinical; iv, Tmax range, 2 mg i.v.): 4.98 to 10 min
Tmax (clinical; iv, Tmax, 2 mg i.v. (Dilaudid)): 5.64 min
AUC(0-t) (clinical; other: intranasal, AUC(0-t) range, 2 mg i.n.): 4.25 to 8.73 ng·h/mL
AUC(0-t) (clinical; other: intranasal, AUC(0-t), 2 mg i.n.): 6.19 ng·h/mL
AUC(0-inf) (clinical; other: intranasal, AUC(0-∞) range, 2 mg i.n.): 4.36 to 9.1 ng·h/mL
AUC(0-inf) (clinical; other: intranasal, AUC(0-∞), 2 mg i.n.): 6.68 ng·h/mL
Cmax (clinical; other: intranasal, Cmax range, 2 mg i.n.): 2.76 to 4.42 ng/mL
Cmax (clinical; other: intranasal, Cmax, 2 mg i.n.): 3.44 ng/mL
Tmax (clinical; other: intranasal, Tmax range, 2 mg i.n.): 15 to 20 min
nasal irritation [1]: not observed
absorption by the nasal route [2]: well absorbed
